# Measurements taken from the supplement of paper PMC5393889.
# The list shows a part of the results.
# System: Caenorhabditis elegans N2
# Experiment: aldicarb interaction hit call (worm growth perturbed in combination with 10 uM aldicarb in both replicates, no effect as single agent) (binary (1 = interacts)); higher = interacts with aldicarb (growth perturbed)
# Conditions: first compound 1.5 µM; aldicarb concentration 10 µM; 6 days; 20 °C
# Experimental: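 C. elegans liquid growth assay in 96-well plates: about 40 synchronized L1 worms in NGM with HB101 E. coli, 6 days at 20 C, 0.6% DMSO. Each wactive compound was tested at 1.5 uM plus 10 uM aldicarb, and alone in DMSO controls. Viable worms were scored under a dissection microscope in two replicates. A hit is a compound that perturbed growth with aldicarb in both replicates but had no obvious effect as a single agent. Only compounds that overgrew as single agents are kept.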
row,SMILES,aldicarb interaction hit call
1,CN(Cc1cccn1-c1ncccn1)CC1CCN(CCc2ccc(Cl)cc2)CC1 [wact-329] + CNC(=O)O/N=C/C(C)(C)SC [aldicarb],inactive: 0
2,Brc1ccc2[nH]c3c(c2c1)CCCC3NCCc1ccccc1.Cl (stereo not given) [wact-389] + CNC(=O)O/N=C/C(C)(C)SC [aldicarb],inactive: 0
3,O=C(NC(=S)Nc1ccc(F)c(Cl)c1)C1CC1 [wact-227] + CNC(=O)O/N=C/C(C)(C)SC [aldicarb],inactive: 0
4,Cc1cc(I)ccc1NS(=O)(=O)c1ccc(F)cc1 [wact-408] + CNC(=O)O/N=C/C(C)(C)SC [aldicarb],inactive: 0
5,O=[N+]([O-])c1ccc(N2CCc3ccccc3C2)nc1 [wact-421] + CNC(=O)O/N=C/C(C)(C)SC [aldicarb],inactive: 0
6,Cc1cc(N2CCN(C(=O)c3ccccc3)CC2)c(F)cc1[N+](=O)[O-] [wact-439] + CNC(=O)O/N=C/C(C)(C)SC [aldicarb],inactive: 0
7,CSc1ccccc1C(=O)NCCCc1ccccc1 [wact-568] + CNC(=O)O/N=C/C(C)(C)SC [aldicarb],inactive: 0
8,O=C(c1cc2ccccc2o1)c1ccc(Br)s1 [wact-490] + CNC(=O)O/N=C/C(C)(C)SC [aldicarb],inactive: 0
9,CCCCCc1ccc(-c2ccc(OC)cc2)nc1 [wact-55] + CNC(=O)O/N=C/C(C)(C)SC [aldicarb],inactive: 0
10,COc1ccc(OC)c(N(CC(=O)NC2CC3CCC2C3)S(C)(=O)=O)c1 (stereo not given) [wact-465] + CNC(=O)O/N=C/C(C)(C)SC [aldicarb],inactive: 0
11,O=C(NCc1cccc(C(F)(F)F)c1)c1nc(-c2ccccc2)no1 [wact-201] + CNC(=O)O/N=C/C(C)(C)SC [aldicarb],inactive: 0
12,CC(C)SCCCCCOc1ccc([N+](=O)[O-])cc1 [wact-593] + CNC(=O)O/N=C/C(C)(C)SC [aldicarb],inactive: 0
13,CC(CCn1cccn1)NC(=O)c1csc2nc(-c3ccc(C(F)(F)F)cc3)cn12 (stereo not given) [wact-289] + CNC(=O)O/N=C/C(C)(C)SC [aldicarb],inactive: 0
14,COc1ccc2cc(C(C)NCc3c[nH]nc3-c3ccc(OC)c(F)c3)ccc2c1 (stereo not given) [wact-243] + CNC(=O)O/N=C/C(C)(C)SC [aldicarb],inactive: 0
15,CC(C)CN1CCC(CN(C)Cc2nc(-c3ccc(C(F)(F)F)cc3)no2)CC1 [wact-237] + CNC(=O)O/N=C/C(C)(C)SC [aldicarb],inactive: 0
16,Cc1oc(-c2ccc(-c3ccccc3)cc2)nc1CN(Cc1cnn(C)c1)C(C)C [wact-257] + CNC(=O)O/N=C/C(C)(C)SC [aldicarb],inactive: 0
17,Clc1cccc(-c2noc(CN3CCC(c4ccncc4)CC3)n2)c1 [wact-321] + CNC(=O)O/N=C/C(C)(C)SC [aldicarb],inactive: 0
18,CNCc1ccc(-c2ccc(Br)cc2)o1.Cl [wact-192] + CNC(=O)O/N=C/C(C)(C)SC [aldicarb],inactive: 0
19,O=[N+]([O-])c1ccc(NC(=S)NCc2ccc(Cl)c(Cl)c2)cc1 [wact-109] + CNC(=O)O/N=C/C(C)(C)SC [aldicarb],inactive: 0
20,Nc1cccc(-c2nc3ccccc3s2)c1 [wact-387] + CNC(=O)O/N=C/C(C)(C)SC [aldicarb],inactive: 0

# Nine entries from above, set out differently.
row | SMILES | aldicarb interaction hit call
4 | Cc1cc(I)ccc1NS(=O)(=O)c1ccc(F)cc1 [wact-408] + CNC(=O)O/N=C/C(C)(C)SC [aldicarb] | inactive: 0
5 | O=[N+]([O-])c1ccc(N2CCc3ccccc3C2)nc1 [wact-421] + CNC(=O)O/N=C/C(C)(C)SC [aldicarb] | inactive: 0
6 | Cc1cc(N2CCN(C(=O)c3ccccc3)CC2)c(F)cc1[N+](=O)[O-] [wact-439] + CNC(=O)O/N=C/C(C)(C)SC [aldicarb] | inactive: 0
7 | CSc1ccccc1C(=O)NCCCc1ccccc1 [wact-568] + CNC(=O)O/N=C/C(C)(C)SC [aldicarb] | inactive: 0
8 | O=C(c1cc2ccccc2o1)c1ccc(Br)s1 [wact-490] + CNC(=O)O/N=C/C(C)(C)SC [aldicarb] | inactive: 0
9 | CCCCCc1ccc(-c2ccc(OC)cc2)nc1 [wact-55] + CNC(=O)O/N=C/C(C)(C)SC [aldicarb] | inactive: 0
10 | COc1ccc(OC)c(N(CC(=O)NC2CC3CCC2C3)S(C)(=O)=O)c1 (stereo not given) [wact-465] + CNC(=O)O/N=C/C(C)(C)SC [aldicarb] | inactive: 0
11 | O=C(NCc1cccc(C(F)(F)F)c1)c1nc(-c2ccccc2)no1 [wact-201] + CNC(=O)O/N=C/C(C)(C)SC [aldicarb] | inactive: 0
12 | CC(C)SCCCCCOc1ccc([N+](=O)[O-])cc1 [wact-593] + CNC(=O)O/N=C/C(C)(C)SC [aldicarb] | inactive: 0

# Additional entries

row,SMILES,aldicarb interaction hit call
1,O=C(Nc1ccc(Br)cn1)c1cc2ccccc2o1 [wact-624] + CNC(=O)O/N=C/C(C)(C)SC [aldicarb],inactive: 0
2,Cl.Fc1ccccc1-c1ccc(CNCc2cccs2)o1 [wact-188] + CNC(=O)O/N=C/C(C)(C)SC [aldicarb],inactive: 0
3,O=C(NC(=S)Nc1sc2c(c1C(=O)O)CCCC2)c1ccccc1 [wact-451] + CNC(=O)O/N=C/C(C)(C)SC [aldicarb],inactive: 0
4,CC(=O)Nc1ccc(NC(=O)CC2Sc3ccc(C(F)(F)F)cc3NC2=O)cc1 (stereo not given) [wact-607] + CNC(=O)O/N=C/C(C)(C)SC [aldicarb],inactive: 0
5,O=C(c1ccc(Cl)cc1)C1CCCN(Cc2ccc3ncccc3c2)C1 (stereo not given) [wact-317] + CNC(=O)O/N=C/C(C)(C)SC [aldicarb],inactive: 0
6,O=C(c1cc(COc2ccc(F)cc2Cl)on1)N1CCC(c2ccncc2)CC1 [wact-280] + CNC(=O)O/N=C/C(C)(C)SC [aldicarb],inactive: 0
7,CCOc1ccc(S(=O)(=O)N2CCCCCC2)cc1C [wact-555] + CNC(=O)O/N=C/C(C)(C)SC [aldicarb],inactive: 0
8,CCC(=O)NC(=S)Nc1ccc(CC)cc1 [wact-479] + CNC(=O)O/N=C/C(C)(C)SC [aldicarb],inactive: 0
9,CNCc1cccc(OCc2ccc(Cl)cc2)c1.Cl [wact-172] + CNC(=O)O/N=C/C(C)(C)SC [aldicarb],inactive: 0
10,CCc1ccc(C(=O)Nc2ccc(N3CCN(C)CC3)c(Cl)c2)cc1 [wact-150] + CNC(=O)O/N=C/C(C)(C)SC [aldicarb],inactive: 0
11,O=C(NCCCCc1ccccc1)c1ccccc1F [wact-400] + CNC(=O)O/N=C/C(C)(C)SC [aldicarb],inactive: 0
12,Cc1cc(I)ccc1OCCN1CCOCC1.Cl [wact-559] + CNC(=O)O/N=C/C(C)(C)SC [aldicarb],inactive: 0
13,CSc1ccccc1C(=O)NCc1ccc(F)cc1 [wact-563] + CNC(=O)O/N=C/C(C)(C)SC [aldicarb],inactive: 0
14,CCCCC(=O)Nc1cccc(NC(=S)NC(=O)c2ccc3c(c2)OCCO3)c1 [wact-504] + CNC(=O)O/N=C/C(C)(C)SC [aldicarb],inactive: 0
15,O=C(Nc1ccc(Br)cc1)c1ccc(F)cc1F [wact-128] + CNC(=O)O/N=C/C(C)(C)SC [aldicarb],inactive: 0
16,Clc1ccc(N2CCN(/N=C\c3ccccn3)CC2)cc1 [wact-220] + CNC(=O)O/N=C/C(C)(C)SC [aldicarb],inactive: 0
17,CCc1ccc(-c2cn3ccsc3n2)cc1 [wact-434] + CNC(=O)O/N=C/C(C)(C)SC [aldicarb],inactive: 0
18,c1coc(-c2nc(-c3cccs3)no2)c1 [wact-175] + CNC(=O)O/N=C/C(C)(C)SC [aldicarb],inactive: 0
19,Cc1ccc(-c2cc(-c3ccccc3Cl)[nH]n2)c(O)c1 [wact-623] + CNC(=O)O/N=C/C(C)(C)SC [aldicarb],inactive: 0
20,S=C(NCCc1ccc(Cl)cc1)Nc1ccccc1 [wact-443] + CNC(=O)O/N=C/C(C)(C)SC [aldicarb],inactive: 0
